# Results published in PubChem BioAssay AID504467 (National Center for Advancing Translational Sciences (NCATS), 2011).
# The whole screen tested about 330,000 compounds, of which about 7,700 (2.3%) were called active. The inconclusive results got no clear call from the source; some entries with a clear call stand among them for comparison. The call rests on the fitted dose curve; in most records, active means well fitted inhibition curve with a large enough effect; inconclusive means small, poorly fitted or top-dose-only effect, or effect the other way; inactive means flat fitted curve, though single readings scatter. Potencies of inconclusive entries are doubtful fits and often do not repeat.
# Assay: qHTS screen for small molecules that inhibit ELG1-dependent DNA repair in human embryonic kidney (HEK293T) cells expressing luciferase-tagged ELG1; further: nearly all actives have a fitted effect of over 55% in size
# Details: HEK293T ELG1-luciferase reporter, luminescence, 16 h, DNA damage induced by 5-fluorouridine; activity change, negative = inhibition: at 46.1 µM (top of the series)
# Summary of the method: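 Reporter activity after DNA damage by 5-fluorouridine is monitored. Compound-treated cells incubate 16 hr at 37 °C, then ONE-Glo is added for 30 min before luminescence reading.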
# On the % scale 0 is the no-effect control and ±100 the full control effect; potency means the concentration at half of the fitted maximal effect.
Compound,Potency,"activity change, negative = inhibition"
Cc1ccc(NC(=O)c2ccc(Cl)nc2)cc1S(=O)(=O)N1CCOCC1,active: 23.1 µM,–
N#Cc1cccc(-n2nnnc2-c2ccc3c(c2)OCO3)c1,"inconclusive: 20.6 µM [activator, single point]",–
CCCC(=O)N1CCN(c2ccc(NC(=O)c3ccco3)cc2)CC1,"inconclusive: 7.31 µM [activator, partial curve]",–
CC1=C(C(=O)OCC2CCCO2)C(c2ccccc2OC(C)C)C2=C(CC(c3ccco3)CC2=O)N1 (stereo not given),–,inactive: -5.35%
COc1ccc(NC(=S)N2CCN(S(=O)(=O)c3ccc(OC)cc3)CC2)cc1,–,inactive: -18.3%
CCc1nnc(NC(=O)C2CCCN2C(=O)Nc2ccccc2OC)s1 (stereo not given),"inconclusive: 32.6 µM [activator, partial curve, poor fit]",–
CCC(=O)c1ccc(N2CCCCCC2)c(F)c1,"inconclusive: 18.4 µM [activator, partial curve, poor fit]",–
Cc1cccc(OCCn2c(=O)sc3ccccc32)c1,"inconclusive: 18.4 µM [activator, partial curve]",–
Cc1ccc(C2C=NN(c3ccccc3)C2=O)cc1 (stereo not given),"inconclusive: 20.6 µM [activator, partial curve]",–
O=C(Cc1n[nH]c(=O)c2ccccc12)OCC(=O)c1ccc2c(c1)OCCO2,"inconclusive: 20.6 µM [activator, single point]",–
O=C(Nc1ccc(Cl)c(S(=O)(=O)N2CCOCC2)c1)c1ccncc1,"inconclusive: 29.1 µM [inhibitor, single point]",–
C[C@H](O)[C@H](O)[C@H]1CNc2nc(N)[nH]c(=O)c2N1,"inconclusive: 12.6 µM [activator, single point]",–
Cc1cccc(OCC(=O)Nc2ccccc2C(F)(F)F)c1,"inconclusive: 16.4 µM [activator, partial curve]",–
Cn1nc(C(=O)NNC(=O)c2cccc(Cl)c2)c2ccccc2c1=O,"inconclusive: 29.1 µM [activator, partial curve, poor fit]",–
O=C(NCCCN1CCN(c2ccc(F)cc2)CC1)NC12CC3CC(CC(C3)C1)C2,–,inactive: -16.5%
CCOC(=O)C1CCCN(c2ncnc3c2cnn3-c2cccc(C)c2)C1 (stereo not given),"inconclusive: 20.6 µM [activator, single point]",–
Cc1c(C(=O)NN)nc2ccccn12,"inconclusive: 20.6 µM [activator, partial curve, poor fit]",–
Cc1cccc(NC(=O)COC(=O)c2ccccc2SCC(=O)N2CCCC2)c1,–,inactive: -2.32%

Compound,Potency,"activity change, negative = inhibition"
Nc1c(-c2ccc(Cl)cc2)cnn1-c1ccccc1,"inconclusive: 14.6 µM [activator, partial curve]",–
Cc1ccc2nc3c(cc(C(=O)NC4CCCC4)c(=N)n3C3CCCCC3)c(=O)n2c1,"inconclusive: 1.16 µM [inhibitor, single point]",–
c1ccc(Cn2c(-c3cccs3)nc3nc4ccccc4nc32)cc1,–,inactive: 0%
Nc1c([N+](=O)[O-])c(=O)oc2ccccc12,–,inactive: 0.198%
CCN1CCN(c2ccc(Cl)cc2NC(=O)c2ccc(-n3nc(C)cc3C)cc2)CC1,active: 14.6 µM,–
CCSC1=C(C#N)C(c2ccccc2Cl)C(C(=O)c2cccs2)C(O)(C(F)(F)F)N1 (stereo not given),"inconclusive: 29.1 µM [inhibitor, single point]",–
CC(=O)c1c(C)[nH]c(C(=O)CN2C(=O)NC3(CCCCC3)C2=O)c1C,"inconclusive: 8.2 µM [activator, partial curve, poor fit]",–
Cc1ccsc1/C=N/NC(=O)Cc1cccn1C,–,inactive: 9.15%
CC1=CC(C)(C)N(C(=O)CSc2nccn2C)c2cc(C)ccc21,"inconclusive: 29.1 µM [inhibitor, single point]",–
O=C(NNC(=O)c1nn(-c2ccc(F)cc2)ccc1=O)c1ccc(Cl)cc1,–,inactive: -25.7%
Cc1ccc2c(c1Br)/C(=N/N1C(=O)c3ccccc3C1=O)C(=O)N2,"inconclusive: 11.2 µM [inhibitor, partial curve, poor fit]",–
Cc1ccc(OCc2cc(C(=O)NCc3cn4ccccc4n3)no2)cc1C,–,inactive: -2.71%
COc1ccc(/C=C/C(=O)Nc2cccnc2)cc1OC,"inconclusive: 29.1 µM [activator, single point]",–
COc1cccc(CNC(=O)CCC2CCCN(C(=O)c3cccnc3SC)C2)c1 (stereo not given),–,inactive: 11%
CCc1ccc(OCC(O)CN2CCN(c3ccccn3)CC2)cc1 (stereo not given),"inconclusive: 23.1 µM [inhibitor, single point]",–
Cn1c(=O)[nH]c(=O)c2c1nc(N(CCO)Cc1ccccc1)n2CCCc1ccccc1,–,inactive: -8.27%
COc1ccc(N2CCN(S(=O)(=O)CCNC(=O)Cc3ccc([N+](=O)[O-])cc3)CC2)cc1,"inconclusive: 6.51 µM [inhibitor, partial curve, poor fit]",–

# For convenience, some entries already given.
Compound,Potency,"activity change, negative = inhibition"
Nc1c([N+](=O)[O-])c(=O)oc2ccccc12,–,inactive: 0.198%
CCN1CCN(c2ccc(Cl)cc2NC(=O)c2ccc(-n3nc(C)cc3C)cc2)CC1,active: 14.6 µM,–
CCSC1=C(C#N)C(c2ccccc2Cl)C(C(=O)c2cccs2)C(O)(C(F)(F)F)N1 (stereo not given),"inconclusive: 29.1 µM [inhibitor, single point]",–
CC(=O)c1c(C)[nH]c(C(=O)CN2C(=O)NC3(CCCCC3)C2=O)c1C,"inconclusive: 8.2 µM [activator, partial curve, poor fit]",–
Cc1ccsc1/C=N/NC(=O)Cc1cccn1C,–,inactive: 9.15%
CC1=CC(C)(C)N(C(=O)CSc2nccn2C)c2cc(C)ccc21,"inconclusive: 29.1 µM [inhibitor, single point]",–
O=C(NNC(=O)c1nn(-c2ccc(F)cc2)ccc1=O)c1ccc(Cl)cc1,–,inactive: -25.7%
Cc1ccc2c(c1Br)/C(=N/N1C(=O)c3ccccc3C1=O)C(=O)N2,"inconclusive: 11.2 µM [inhibitor, partial curve, poor fit]",–
Cc1ccc(OCc2cc(C(=O)NCc3cn4ccccc4n3)no2)cc1C,–,inactive: -2.71%
COc1ccc(/C=C/C(=O)Nc2cccnc2)cc1OC,"inconclusive: 29.1 µM [activator, single point]",–
